In this assay the target is P. berghei ICM1 tagged with HA3 (P. berghei). Briefly: affinity purification with mass spectrometry.

No constants are given. Whether binding was seen depends on the method and setting. In cells and extracts the contact can be indirect. Here binding means that the protein was enriched with, or labelled near, the bait; the list need not be complete.

B1: P. berghei cGMP-dependent protein kinase (enzyme, UniProt A0A509AKL0 1-856)
chain: MDDDEIIPKKNHPSNERNKKKAILSHEDFTGEDSLMENHLELRDKLTEDIVTIKASLKNNLVCSTLNENEILALSNYMQFFVFKSGDMVIKQGEKGSYFFIINSGKFDVYVNDKKVKTLTKGSSFGEAALIHNTQRSATIKAGTNGTLWGVQRSTFRATLKQLSNRNFNENRSFIDSVSVFDMLTEAQKNMITNACVIQNFKPGETIVKQGDYGDVLYILKDGKATVYINDEEIRVLEKGSYFGERALLYDEPRSATIIAKEVTSCASICRKLLNVVLGNLQVVLFRNIMTEALQQSEIFKQISPDQLNDLADTAIVRDYPANYNILHKDKIKSVKYIIVLEGKVELFLDDESIGILTRGKSFGDQYVLNQKQKFKHTLKSLEVCKIALITESCLADCLGNNNIDASIDYNNKKSIIKKMYIFRYLTDKQCNLLIEAFKTTRYEEGDYIIQEGEVGSRFYIIKAGEVEIVKNNKRLRTLGKNDYFGERALIYDEPRTASVISTVNNLECWYVDKSVFLQIIEGPMLAHLEERIKMQDTKVEMSELLTERIIGRGTFGIVKLVLHEPTKIRYALKCVSKKSIIELNQQNNIKLEREITAENDHPFIIRLVRTFKDSKYFYFLTELVTGGELYDAIRKLGLLSRSQAQFYLGSIILAIEYLHERSIVYRDLKPENILLDKQGYVKLIDFGCAKKIHGRSYTLVGTPHYMAPEVILGKGYGCTVDIWAFGVCLYEFICGPLPFGNDQEDQLEIFRDILTGQLTFPDYVTDTDSINLIKRLLCRLPQGRIGCSINGFKDIKENSFFADFDWDRLAGRLLEPPLISKSETYAEDIDVKQIEQEEEDNANTEIDDENWDIDF
As to B1, the binding result is given as “binds”.

The record behind these values is paper doi:10.1101/2020.07.18.209973.
